Measurements from PMC5874067.
These are yes or no findings as the source states them, for the method shown. In cells and extracts the contact can be indirect. A result given as binding can be weak or reduced; the word gives no strength. Tags and fused reporters may be left off the sequences shown.

Protein sequences, listed by entry. Tags and fused reporters are not part of them. Lines headed by an entry give the natural chain unless they say otherwise; changes in a name come on top.
UniProt Q8NFJ9: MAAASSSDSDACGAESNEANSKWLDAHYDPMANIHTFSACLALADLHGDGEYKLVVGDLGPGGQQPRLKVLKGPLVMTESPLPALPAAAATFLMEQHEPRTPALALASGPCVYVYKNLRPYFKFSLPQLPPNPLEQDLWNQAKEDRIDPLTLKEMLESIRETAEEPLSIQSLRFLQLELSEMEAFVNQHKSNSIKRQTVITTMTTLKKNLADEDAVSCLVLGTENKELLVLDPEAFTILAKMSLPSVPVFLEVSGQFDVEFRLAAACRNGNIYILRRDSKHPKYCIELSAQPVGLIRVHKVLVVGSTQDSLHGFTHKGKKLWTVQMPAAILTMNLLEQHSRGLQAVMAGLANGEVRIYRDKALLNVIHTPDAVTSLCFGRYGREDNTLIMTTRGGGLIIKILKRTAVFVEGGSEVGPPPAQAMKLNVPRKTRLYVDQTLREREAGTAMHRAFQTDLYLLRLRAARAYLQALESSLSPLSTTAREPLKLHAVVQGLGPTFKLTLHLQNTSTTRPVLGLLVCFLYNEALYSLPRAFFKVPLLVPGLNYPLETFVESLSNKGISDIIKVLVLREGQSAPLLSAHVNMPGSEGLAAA

Biological target: T1, EGFP-BBS9 (human) (UniProt Q3SYG4)
T1 sequence: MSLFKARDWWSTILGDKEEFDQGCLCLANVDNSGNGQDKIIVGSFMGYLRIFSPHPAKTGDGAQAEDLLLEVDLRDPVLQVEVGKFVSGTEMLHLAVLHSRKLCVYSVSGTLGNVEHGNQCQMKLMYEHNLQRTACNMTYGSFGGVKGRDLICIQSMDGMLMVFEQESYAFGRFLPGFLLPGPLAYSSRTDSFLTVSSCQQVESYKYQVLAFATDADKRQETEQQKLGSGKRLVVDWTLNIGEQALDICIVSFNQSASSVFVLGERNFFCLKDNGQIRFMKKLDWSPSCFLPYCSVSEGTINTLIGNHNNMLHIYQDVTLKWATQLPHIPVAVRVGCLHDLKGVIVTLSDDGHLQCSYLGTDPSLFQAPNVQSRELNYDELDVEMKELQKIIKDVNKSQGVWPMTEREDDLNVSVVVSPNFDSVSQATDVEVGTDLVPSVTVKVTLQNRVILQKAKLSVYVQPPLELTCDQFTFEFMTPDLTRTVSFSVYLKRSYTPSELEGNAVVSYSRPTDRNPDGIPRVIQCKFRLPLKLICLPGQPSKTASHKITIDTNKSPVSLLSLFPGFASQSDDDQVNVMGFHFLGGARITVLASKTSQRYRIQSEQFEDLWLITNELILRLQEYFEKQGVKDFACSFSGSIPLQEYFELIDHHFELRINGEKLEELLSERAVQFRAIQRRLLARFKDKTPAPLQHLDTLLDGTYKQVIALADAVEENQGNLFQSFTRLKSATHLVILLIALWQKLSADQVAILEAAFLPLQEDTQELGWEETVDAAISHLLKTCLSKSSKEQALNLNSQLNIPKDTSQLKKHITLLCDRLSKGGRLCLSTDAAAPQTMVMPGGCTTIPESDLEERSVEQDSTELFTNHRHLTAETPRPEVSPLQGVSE
Experiment: co-IP; VIP assay: lysates of HEK293T cells co-expressing an EGFP-fused and an mChe- or tRFP-fused protein (HMDEKN buffer: 10 mM HEPES pH 7.4, 5 mM MgSO4, 1 mM DTT, 0.5 mM EDTA, 25 mM KCl, 0.5% NP-40); EGFP fusion precipitated with GST-anti-GFP nanobody on glutathione-Sepharose beads; beads read by fluorescence microscopy and, for some pairs, by immunoblotting

binding: binds
Substance: mChe-fused BBS1(∆α) (from UniProt Q8NFJ9)
